# Laboratory results from PMC8659060, “Neuroprotective Potential of Synthetic Mono-Carbonyl Curcumin Analogs Assessed by Molecular Docking Studies” (Molecules, 2021).
# Tested on: scopolamine-induced amnesia in mice
# Experiment: Elevated plus maze (EPM), scopolamine-induced amnesia
# Type: in vivo, Balb/C mice
# Conditions: scopolamine 1 mg/kg i.p. alone, negative control (amnesic group); n = 6
# Protocol: Balb/C mice iwth a weight of (17–23 gm) were procured from the NIH (National Institute of Health), Islamabad, which were kept for breeding under favorable conditions in the animal house of the Pharmacy Department, Shaheed Benazir Bhutto University Sheringal Dir (Upper). Light/dark cycle of about 12 h each was maintained, with relative humidity of 50–55% at 22–25 °C. This work was conducted with approval from the Departmental Ethical Committee (SBBU/IEC-20-02) of the Scientific Procedure Issue-I of the University of Malakand in compliance with provision of the 2008 Animal Byelaws.
# Mice were divided into thirteen groups with 6 mice in each group.
# Group I. Normal control group (vehicle treated) received 10 mL/kg (i.p.) normal saline.
# Group IV–XIII. Sample (curcumin analog)-treated groups. Synthesized curcumin analogs were administered in doses of 7.5 mg/kg and 15 mg/kg (p.o.), respectively.
# The groups were kept for 7 days at various treatments doses.
# The EPM consisted of two open arms and two closed arms with dimensions of 16 cm × 5 cm × 12 cm, and was made from two poly acrylic sheets and designed as a plus sign with a central platform with dimensions of 5 cm × 5 cm, which was elevated 25 cm from the floor on a wooden stand. […]
compound,measurement,value
"CN1[C@@H]2C[C@@H](OC(=O)[C@H](CO)c3ccccc3)C[C@H]1[C@@H]1O[C@@H]12 [Scopolamine, reference compound]","Retention (transfer latency time, TLT)",67.31 ± 1.24 s
